PubChem BioAssay AID652259 | Drosophila RNAi Screening Center – 2013
Test: 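Knock-downs that push a Wingless-driven reporter up or down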 (primary screen). Cell system: Drosophila clone 8 imaginal disc epithelial cells. Reagents: long dsRNA against Drosophila genes. Challenge: pathway stimulated by co-transfected Wingless expression plasmid. Measurement: 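Dual luciferase reads per well after Wingless plasmid stimulation: reporter firefly light and Renilla control light; activity is firefly divided by Renilla, a ratio not deposited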. Direction: firefly reporter light: higher = more Wg reporter light, before normalisation; Renilla control light: higher = more transfected or surviving cells. Active means: 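a knock-down is a candidate when at least two out of four statistical tests show it departing from its plate mean; one test alone signals a weak candidate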. Meaning of the calls: active = candidate regulator (raises or lowers reporter); inactive = not a candidate.
The deposit covers about 22,000 reagents; below is an unselected part of those with a known target gene and a result. In the full data, 233 (1.1%) were called active. 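Light values are raw, unnormalised plate reads; the ratio scores behind the reporter calls were not deposited.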 Entries without a mark were called inactive. Names joined by + are all predicted targets of the reagent. No sequences are given here. The record does not give: the amount of reagent, the time to read-out, the dose of the treatment.

CG13049 [DRSC09930]: firefly reporter light, replicate 1 = 8752; Renilla control light, replicate 1 = 3607
Vamp7 (Vesicle-associated membrane protein 7) [DRSC06599]: firefly reporter light, replicate 1 = 3456; firefly reporter light, replicate 2 = 11913; Renilla control light, replicate 1 = 1110; Renilla control light, replicate 2 = 4193
CG31337 [DRSC12981]: firefly reporter light, replicate 1 = 3476; Renilla control light, replicate 1 = 987
blw (bellwether) [DRSC04675]: firefly reporter light, replicate 1 = 2833; firefly reporter light, replicate 2 = 7734; Renilla control light, replicate 1 = 531; Renilla control light, replicate 2 = 2000
ppk29 (pickpocket 29) [DRSC04205]: firefly reporter light, replicate 1 = 3254; firefly reporter light, replicate 2 = 9693; Renilla control light, replicate 1 = 595; Renilla control light, replicate 2 = 3303
CG11357 [DRSC08183]: firefly reporter light, replicate 1 = 965; firefly reporter light, replicate 2 = 4848; Renilla control light, replicate 1 = 928; Renilla control light, replicate 2 = 2954
Grip163 [DRSC10538]: firefly reporter light, replicate 1 = 4989; Renilla control light, replicate 1 = 1971
CG11964 [DRSC14447]: firefly reporter light, replicate 1 = 6026; Renilla control light, replicate 1 = 1925
CG14132 [DRSC10136]: firefly reporter light, replicate 1 = 6003; Renilla control light, replicate 1 = 2717
msl-3 (male-specific lethal 3) [DRSC11371]: firefly reporter light, replicate 1 = 2208; firefly reporter light, replicate 2 = 9905; Renilla control light, replicate 1 = 1428; Renilla control light, replicate 2 = 2883
Rab40 [DRSC19820]: firefly reporter light, replicate 1 = 17782; Renilla control light, replicate 1 = 11943
CG6118 [DRSC15968]: firefly reporter light, replicate 1 = 14997; Renilla control light, replicate 1 = 1395
CG3739 [DRSC15510]: firefly reporter light, replicate 1 = 8560; Renilla control light, replicate 1 = 1709
RhoGAP100F (Rho GTPase activating protein at 100F) [DRSC15409]: firefly reporter light, replicate 1 = 2326; firefly reporter light, replicate 2 = 2512; Renilla control light, replicate 1 = 856; Renilla control light, replicate 2 = 1016
CG34008 [DRSC13428]: firefly reporter light, replicate 1 = 2683; Renilla control light, replicate 1 = 1289
CG7497 [DRSC10857]: firefly reporter light, replicate 1 = 3627; Renilla control light, replicate 1 = 2050
PGAP3 (Post-GPI attachment to proteins 3) [DRSC04989]: firefly reporter light, replicate 1 = 9834; Renilla control light, replicate 1 = 3106
CG12035 [DRSC08238]: firefly reporter light, replicate 1 = 13536; Renilla control light, replicate 1 = 3168
CG30172 [DRSC21519]: firefly reporter light, replicate 1 = 7.37e5; firefly reporter light, replicate 2 = 8.12e5; Renilla control light, replicate 1 = 3.76e5; Renilla control light, replicate 2 = 3.51e5
psh (persephone) [DRSC19990]: firefly reporter light, replicate 1 = 20480; Renilla control light, replicate 1 = 10537
spn-E (spindle E) [DRSC17064]: firefly reporter light, replicate 1 = 19932; Renilla control light, replicate 1 = 4506
CG5326 [DRSC13568]: firefly reporter light, replicate 1 = 2536; Renilla control light, replicate 1 = 1244
CG5326 [DRSC15770]: firefly reporter light, replicate 1 = 3282; firefly reporter light, replicate 2 = 6646; Renilla control light, replicate 1 = 1562; Renilla control light, replicate 2 = 1866
CG42354 + CG42353 [DRSC20172]: reporter change call, replicate 1 = Wg reporter activity raised (active); firefly reporter light, replicate 1 = 3472; firefly reporter light, replicate 2 = 9689; Renilla control light, replicate 1 = 401; Renilla control light, replicate 2 = 1349
MetRS-m (Methionyl-tRNA synthetase, mitochondrial) [DRSC16443]: firefly reporter light, replicate 1 = 2928; Renilla control light, replicate 1 = 1346
MetRS-m (Methionyl-tRNA synthetase, mitochondrial) [DRSC16515]: firefly reporter light, replicate 1 = 11820; Renilla control light, replicate 1 = 1878
CG32536 + CG32537 [DRSC20074]: firefly reporter light, replicate 1 = 25959; Renilla control light, replicate 1 = 1248
Gr92a (Gustatory receptor 92a) [DRSC21631]: firefly reporter light, replicate 1 = 3.78e5; firefly reporter light, replicate 2 = 4.11e5; Renilla control light, replicate 1 = 1.51e5; Renilla control light, replicate 2 = 1.37e5
CG11529 [DRSC09839]: firefly reporter light, replicate 1 = 5712; Renilla control light, replicate 1 = 2256
dpr3 (defective proboscis extension response 3) [DRSC00395]: firefly reporter light, replicate 1 = 3027; firefly reporter light, replicate 2 = 6072; Renilla control light, replicate 1 = 1348; Renilla control light, replicate 2 = 2294
dpr3 (defective proboscis extension response 3) [DRSC00396]: firefly reporter light, replicate 1 = 4261; firefly reporter light, replicate 2 = 8317; Renilla control light, replicate 1 = 1253; Renilla control light, replicate 2 = 2186
dpr3 (defective proboscis extension response 3) [DRSC21369]: reporter change call, replicate 1 = Wg reporter activity raised; firefly reporter light, replicate 1 = 3.44e5; firefly reporter light, replicate 2 = 4.29e5; Renilla control light, replicate 1 = 40384; Renilla control light, replicate 2 = 36732

2 entries from above, set out differently.
{"gene knocked down": "CG12035", "amplicon": "DRSC08238", "firefly reporter light, replicate 1": 13536, "Renilla control light, replicate 1": 3168}
{"gene knocked down": "CG30172", "amplicon": "DRSC21519", "firefly reporter light, replicate 1": 7.37e5, "firefly reporter light, replicate 2": 8.12e5, "Renilla control light, replicate 1": 3.76e5, "Renilla control light, replicate 2": 3.51e5}
